US20040077845A1, “Modifier” (priority 2001, published 2004)

system: proteins; experiment: introduction of galactose residues into proteins by separated oligosaccharides (similar treatments); assay type: biochemical; conditions: similar treatments as Example 2

| Molecule | introduction of galactose residues into proteins |
| --- | --- |
| carraoctaose | galactose residues were introduced into proteins |
| carratetraose | galactose residues were introduced into proteins |
| agarooctaose | galactose residues were introduced into proteins |
| carrapentaose | galactose residues were introduced into proteins |
| agaropentaose | galactose residues were introduced into proteins |
| OC[C@H]1O[C@@H](O[C@H]2[C@H]3OC[C@@H]2O[C@@H](O[C@H]2[C@@H](O)[C@@H](CO)O[C@@H](O[C@H]4[C@H]5OC[C@@H]4OC(O)[C@H]5O)[C@@H]2O)[C@H]3O)[C@H](O)[C@@H](O)[C@H]1O (some centres unmarked) [agarotetraose] | galactose residues were introduced into proteins |
| OC[C@H]1O[C@@H](O[C@H]2[C@H]3OC[C@@H]2OC(O)[C@H]3O)[C@H](O)[C@@H](O)[C@H]1O (mixture of isomers) [agarobiose] | galactose residues were introduced into proteins |
| O=CC(O)[C@H]1OC[C@@H](O)C1O[C@@H]1O[C@H](CO)[C@H](O)[C@H](O)[C@H]1O (some centres unmarked) [carrabiose] | galactose residues were introduced into proteins |

Some entries repeat one wording, which the source may state once for all of them.
